According to publication doi:10.1101/844365:
These are yes or no findings as the source states them, for the method shown. Binding calls can cover weak binding; strength is not graded here. Sequences can lack the tags named with a protein.

Biological target: C-terminal part of AtTPL, GAL4 binding domain fusion (Arabidopsis thaliana)
Test: two-hybrid

B1: ERF11, GAL4 activation domain fusion (protein, UniProt Q9C5I3 1-166)
chain: MAPTVKTAAVKTNEGNGVRYRGVRKRPWGRYAAEIRDPFKKSRVWLGTFDTPEEAARAYDKRAIEFRGAKAKTNFPCYNINAHCLSLTQSLSQSSTVESSFPNLNLGSDSVSSRFPFPKIQVKAGMMVFDERSESDSSSVVMDVVRYEGRRVVLDLDLNFPPPPEN
binding: binds
